In article PMC4741643:
Results are given in words; binding and its absence hold for the method and conditions named. Binding can be weak; no strength is given. Sequences can lack the tags named with a protein.

Biological target: T1, suppressor of MEK null (sMEK1), full-length human, pGilda fusion (human) (UniProt Q6IN85)
T1 sequence: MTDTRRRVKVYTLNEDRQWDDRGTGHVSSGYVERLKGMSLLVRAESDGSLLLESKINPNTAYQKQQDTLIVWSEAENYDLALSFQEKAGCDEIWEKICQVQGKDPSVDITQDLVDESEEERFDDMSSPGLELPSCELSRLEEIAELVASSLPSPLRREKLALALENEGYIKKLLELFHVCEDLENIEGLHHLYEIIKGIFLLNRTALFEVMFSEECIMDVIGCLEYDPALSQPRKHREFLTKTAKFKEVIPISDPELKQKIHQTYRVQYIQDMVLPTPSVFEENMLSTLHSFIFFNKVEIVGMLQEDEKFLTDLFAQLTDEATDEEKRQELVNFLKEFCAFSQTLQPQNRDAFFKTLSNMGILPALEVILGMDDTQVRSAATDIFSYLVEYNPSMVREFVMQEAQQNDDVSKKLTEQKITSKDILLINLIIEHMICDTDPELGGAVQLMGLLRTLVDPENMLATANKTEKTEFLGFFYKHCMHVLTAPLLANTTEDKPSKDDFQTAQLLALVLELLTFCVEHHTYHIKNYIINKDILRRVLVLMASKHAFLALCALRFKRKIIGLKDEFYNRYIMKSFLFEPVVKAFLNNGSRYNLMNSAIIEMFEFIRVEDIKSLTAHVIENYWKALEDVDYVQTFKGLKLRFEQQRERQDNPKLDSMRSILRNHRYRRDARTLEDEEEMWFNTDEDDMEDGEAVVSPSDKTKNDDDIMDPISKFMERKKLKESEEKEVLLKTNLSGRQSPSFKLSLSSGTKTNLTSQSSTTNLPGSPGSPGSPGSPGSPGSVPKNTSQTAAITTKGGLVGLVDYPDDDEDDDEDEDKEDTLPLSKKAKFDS
Experiment: two-hybrid; EGY48 yeast cells; pGilda-sMEK1 as bait, pJG4-5 fusions as prey; growth on medium lacking leucine, blue colonies on X-gal plates with 2% galactose, β-galactosidase activity with ONPG

With “VEGFR-2 truncated fragment Leu801-Leu1000, pJG4-5 fusion (human) (domain or fragment)” the binding was “binds”.
